Assay: general procedure: Boc solid-phase peptide synthesis; p-Methyl-Benzhydrylamine resin; N-alpha-t-Boc-Arg(N^G-Tos) Merrifield resin; benzhydrylamine resin; diisopropylcarbodiimide
Settings: whole synthesis, scale 0.8 g protected peptide resin

Substance “Arginyl-Cysteinyl-D-Alanyl-Phenylalanyl-Glycyl-Glycyl-Arginyl-Leucyl-Aspartyl-Arginyl-Isoleucyl-Cysteinyl-Phenylalanyl-Arginyl-Carboxamide Cyclic Disulfide” has an isolated mass of 28 mg and an isolated yield of 6%.

From EP0341603A2 (ABBOTT LABORATORIES, priority 1988, dated 1989)
